Source: PubChem BioAssay AID1471 (National Center for Advancing Translational Sciences (NCATS), 2008)
Among all 230,000 compounds or so, about 310 (0.13%) were called active. Inconclusive means that the source gave no clear call. Such entries were picked first, then a sample of the others. The call rests on the fitted dose curve; in most records, active means well fitted activation curve with a large enough effect; inconclusive means small, poorly fitted or top-dose-only effect; inactive means no such curve, though single readings can be large or run the other way. Where the call is inconclusive, the potency comes from a doubtful curve fit.

assay: qHTS Multiplex Assay to Identify Dual Action Probes in a Cell Model of Huntington: Cytoprotection (ATP); conditions: PC12 HTT-Q103 induced, ATP luminescence, 40 h; cytoprotection (ATP increase): at 56.4 µM (top of the series) unless noted; further: nearly all actives have a fitted effect of over 45% in size;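 on cytoprotection (ATP increase): toxic huntingtin expression switched on by the ecdysone agonist tebufenozide; % of control where 0% means no effect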
In short: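 Huntington model: PC12 line, ecdysone-inducible HTTQ103 exon1–GFP, tebufenozide 100 nM. Test articles in a dose series. Endpoint luminescence from cellular ATP.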
Potency means the concentration at half of the fitted maximal effect.

Row | Structure (SMILES) | Potency | cytoprotection (ATP increase)
1 | O=[N+]([O-])C(C1CCS(=O)(=O)C1)C1CCS(=O)(=O)C1 (centres undefined) | inconclusive: 1.26 µM [activator, single point] | 
2 | Cc1ccc(C)cc1 | inactive | 
3 | C=C(C)C(O)/C=C/c1ccc(C(F)(F)F)cc1 (centres undefined) | inconclusive: 3.16 µM [activator, partial curve] | 
4 | CCc1ccc(N2C(=O)CC(N3CCC(C(=O)OC)CC3)C2=O)cc1 (centres undefined) | inactive | 
5 | COc1ccccc1-c1oc2ccccc2c(=O)c1OC | inconclusive: 0.355 µM [activator, partial curve] | 
6 | COC(=O)c1ccc(C#CC(NP(=O)(c2ccccc2)c2ccccc2)c2ccccc2)cc1 (centres undefined) | inconclusive: 31.6 µM [activator, single point] | 
7 | O=C(NC1CCS(=O)(=O)C1)/C(=C/c1ccco1)NC(=O)c1ccccc1 (centres undefined) | active: 0.141 µM | 
8 | NC(=NC(=O)c1ccccc1)N1CCN(C(c2ccccc2)c2ccccc2)CC1 | inconclusive: 3.16 µM [activator, single point] | 
9 | CCc1c2c(nc3cccc(C(C)C)c13)-c1cccc(=O)n1C2 | inactive | 
10 | O=C(NCc1cccnc1)c1ccc(CS(=O)(=O)c2ccc(Cl)cc2)o1 | inactive | 
11 | COc1ccc(-n2c(=O)c(-c3ccccc3)nc3cnc(N4CCNCC4)nc32)cc1 | inconclusive: 35.5 µM [activator, single point] | 
12 | CC1=C(C(=O)N2CCOCC2)C(c2ccccc2F)NC(=O)N1 (centres undefined) | inconclusive: 35.5 µM [activator, single point] | 
13 | CC(=O)Nc1cccc2c1C(=O)NC2=O | inactive | 
14 | CCCNC[C@H](O)COc1ccccc1C(=O)CCc1ccccc1 | inconclusive: 0.891 µM [activator, single point] | 
15 | Cc1ccc(S(=O)(=O)N/N=C/c2cccc([N+](=O)[O-])c2)cc1 | inconclusive: 5.62 µM [activator, single point] | 
16 | COCCCN(CCC#N)C(=O)c1c(-c2c(Cl)cccc2Cl)noc1C |  | inactive: 5.24% [at 10 µM]
17 | CCCCOc1ccc(C(C)NC(=O)CCS(=O)(=O)Cc2ccccc2Cl)cc1 (centres undefined) | inconclusive: 2.24 µM [activator, partial curve] | 
18 | Cc1nnc(N(C)C(=O)c2ccncc2)s1 | inconclusive: 0.112 µM [activator, partial curve, poor fit] | 
19 | Cc1cc2oc(=O)cc(-c3ccccc3)c2c(C)c1-c1ccc(C#N)cc1 | inactive | 
20 | COCC(=O)N1CCC[C@@]2(CCN(C(c3ccccc3)c3ccccc3)C2)C1 | inconclusive: 2.82 µM [activator, partial curve] | 
21 | CCCn1c(CCC(=O)Nc2ccccc2Cc2ccccc2)nc2cc(S(=O)(=O)N3CCOCC3)ccc21 | inactive | 
22 | O=C(CCc1ccccc1)Nc1nc2n(n1)C(c1ccccc1)CC(=O)N2 (centres undefined) | inactive | 

Row | Structure (SMILES) | Potency | cytoprotection (ATP increase)
23 | O=C1OC(N2CCN(C/C=C/c3ccccc3)CC2)c2ccccc21 (centres undefined) | inactive | 
24 | O=C(Cn1c(=O)[nH]c2ccsc2c1=O)NC1CCCCCC1 | inconclusive: 1.26 µM [activator, single point] | 
25 | CCOC(=O)N1CCC(N2CC34C=CC(O3)C(C(=O)Nc3ccc(F)cc3)C4C2=O)CC1 (centres undefined) | inactive | 
26 | O=C(O)CCCC(=O)Nc1cccc(-c2nc3ccccc3[nH]2)c1 | inconclusive: 0.631 µM [activator, single point] | 
27 | COc1cc(CNc2ccc3[nH]c(=O)[nH]c3c2)ccc1OCC(=O)NC(C)(C)C |  | inactive: -23% [at 10 µM]
28 | Cn1cc(/C=C(\C(=O)O)C(C(=O)O)=C2CCCCC2)c2ccccc21 | inactive | 
29 | CN1CCN(NC(=O)c2ccc(Br)c(S(=O)(=O)N3CCOCC3)c2)CC1 | inconclusive: 5.62 µM [activator, single point] | 
30 | CSCCC(Nc1ccc(S(=O)(=O)N2CCOCC2)cc1[N+](=O)[O-])C(=O)OCC(=O)NCC(C)C (centres undefined) | inconclusive: 0.501 µM [activator, single point] | 
31 | C=CCn1cc(C(=O)OC)c(=O)c2cc(S(=O)(=O)N3CCCCCC3)ccc21 | inactive | 
32 | Cc1cc(C2=CC(C)(c3cc(C)oc3C)Nc3nc(C(F)(F)F)nn32)c(C)o1 (centres undefined) | inconclusive: 35.5 µM [activator, single point] | 
33 | O=C(Nc1cccc(F)c1)N1CC2(CCN(C(=O)c3cnccn3)CC2)C1 | inconclusive: 2.82 µM [activator, single point] | 
34 | O=C(Nc1ccccc1C(=O)O)c1ccc2ccccc2n1 |  | inactive: -45.7% [at 10 µM]
35 | O=c1[nH]c2cc3c(cc2cc1CN(CC1CCCO1)S(=O)(=O)c1ccc(Cl)cc1)OCCO3 (centres undefined) | inconclusive: 3.55 µM [activator, single point] | 
36 | COc1cc(CNC2CCCC2)cc(Cl)c1OCc1ccc(F)cc1 |  | inactive: -2.29% [at 10 µM]
37 | COC(=O)[C@@]1(Cc2ccc(F)cc2)[C@@H]2[C@@H](CC(=O)[C@H]2CC(=O)C(=O)N(C)C)CN1C(=O)c1ccccc1 | inconclusive: 39.8 µM [activator, single point] | 
38 | CC(Oc1ccc(Cl)cc1Cl)C(=O)Nc1ccc(N2CCN(C)CC2)cc1 (centres undefined) |  | inactive: -2.36% [at 0.074 µM]
39 | CCCCn1nnnc1NCc1cc(Cl)c(OC)c(OC)c1 | inconclusive: 25.1 µM [activator, single point] | 
40 | COC(=O)[C@@]1(Cc2ccc(F)cc2)[C@H]2c3cc(C(=O)N4CCCC4)n(CCF)c3C[C@H]2CN1C(=O)c1ccccc1 | inconclusive: 31.6 µM [activator, single point] | 
41 | CCSc1nc2ccccc2n1C(=O)/C=C/c1ccc(OC)c(OC)c1 | inconclusive: 1.26 µM [activator, single point] | 
42 | O=C(Cn1c2ccc(F)cc2c2nc3n(c(=O)c21)CCS3)Nc1ccccc1C(F)(F)F | inconclusive: 0.0079 µM [activator, full curve, poor fit] | 
43 | CC(=O)Nc1c([N+](=O)[O-])cc(C)c(Cl)c1[N+](=O)[O-] | inconclusive: 35.5 µM [activator, single point] | 
44 | CCc1nnc(SCC(=O)Nc2ccccc2Cl)nc1CC | inconclusive: 0.708 µM [activator, single point] | 

Whole records from above.
`COc1cc(CNc2ccc3[nH]c(=O)[nH]c3c2)ccc1OCC(=O)NC(C)(C)C` in the list: cytoprotection (ATP increase): inactive: -23% [at 10 µM]
`CC(=O)Nc1c([N+](=O)[O-])cc(C)c(Cl)c1[N+](=O)[O-]` in the list: Potency: inconclusive: 35.5 µM [activator, single point]
`CCc1nnc(SCC(=O)Nc2ccccc2Cl)nc1CC` in the list: Potency: inconclusive: 0.708 µM [activator, single point]
